From publication PMC7819943, “Rice protein-binding microarrays: a tool to detect cis-acting elements near promoter regions in rice”
The list shows a part of the results.

Molecular target: T1, OsSMF1 (Oryza sativa, UniProt Q6ZLB0 1-436)
T1 sequence: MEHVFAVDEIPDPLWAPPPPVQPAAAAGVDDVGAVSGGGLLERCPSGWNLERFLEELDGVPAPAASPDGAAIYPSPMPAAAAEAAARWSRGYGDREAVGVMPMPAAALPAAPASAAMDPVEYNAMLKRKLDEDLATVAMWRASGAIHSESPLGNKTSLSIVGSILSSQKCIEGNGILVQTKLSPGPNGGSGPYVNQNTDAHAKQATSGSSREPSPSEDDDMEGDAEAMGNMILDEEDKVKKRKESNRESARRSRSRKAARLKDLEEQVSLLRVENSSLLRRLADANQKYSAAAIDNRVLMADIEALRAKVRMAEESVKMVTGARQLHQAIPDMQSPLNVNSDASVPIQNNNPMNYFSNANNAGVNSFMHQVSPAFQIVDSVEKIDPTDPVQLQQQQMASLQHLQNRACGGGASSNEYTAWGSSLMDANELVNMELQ
Assay: protein-binding microarray (RPBM); PBS, 2% BSA, 51.3 ng/ul salmon testes DNA, 50 uM zinc acetate, 200 nM TF, 25 C, 1 h; high values mean tight binding
Details: protein: recombinant; tags: N-terminal polyhistidine and DsRed monomer fusion (pET32a); chain copies: 2; label: CyDye5-dUTP incorporated in the synthesized complementary strand; 3' TTTTT single-stranded linker to array surface; dsDNA, one strand shown
Outline: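 In PBS with 2% BSA, salmon testes DNA and 50 µM zinc acetate, 200 nM protein was incubated on a custom Agilent array at 25 °C for 1 h and then washed off. The array had been made double-stranded by primer extension with Cy5-dUTP and blocked with 2% BSA. The proteins were transcription factors fused N-terminally to polyhistidine and DsRed, expressed in E. coli BL21-CodonPlus and purified on Ni–NTA. The binding signal is per-feature fluorescence intensity (arbitrary units) from an Axon 4000B scanner.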

First: TGGACGTCGTGTGCTCGTGCAAACACACGTGGTCGCCAGCCGGAGTCACCTAGTGCAG
Second: TGACGTGTCATTGACATGGTGCTTACGTGGCAATTCGAAACGGAGTCACCTAGTGCAG
The binding signal of the first is lower: 7750 fluorescence intensity (a.u.) for the first, 30200 fluorescence intensity (a.u.) for the second.

First: GCCTGGCTCATCGGTTACCCTTTCTCACCGACTGTACTACCGGAGTCACCTAGTGCAG
Second: TCGCGCTCTCGCCGCCGCCCGTGCCCAGCAACCGCGCGTCCGGAGTCACCTAGTGCAG
The binding signal of the first is lower: 3170 fluorescence intensity (a.u.) for the first, 10400 fluorescence intensity (a.u.) for the second.

Compared with “GGCTGGTCCACGTGAGCCGCATGCGCCACGTATCACGCGACGGAGTCACCTAGTGCAG”, “CATCATCGAGACGAAGCAGCGGGCGCTGCTGGTGACGTCGCGGAGTCACCTAGTGCAG” is lower in binding signal: 5940 fluorescence intensity (a.u.) for the first, 4350 fluorescence intensity (a.u.) for the second.

Compared with “GCAAACTAGCTTCTAGCTTCTTCTTCTTGTCCTCCAAGCTCGGAGTCACCTAGTGCAG”, “ATATGTGTGTTTGACACGTGGAGCAGAGCAGAGGAGTTTGCGGAGTCACCTAGTGCAG” is lower in binding signal: 35000 fluorescence intensity (a.u.) for the first, 9620 fluorescence intensity (a.u.) for the second.

Compared with “GTGCCATCTTATTATTTATAATTTATAGTACCACCTTATTCGGAGTCACCTAGTGCAG”, “AAAATCTGTGGCGTGACTCGACTCGAGGACGTTGTCTGCACGGAGTCACCTAGTGCAG” is lower in binding signal: 3960 fluorescence intensity (a.u.) for the first, 3840 fluorescence intensity (a.u.) for the second.

First: GGAGCGGCGCGCAGGAGAGGATCTACGGGCGGCGCCTGCTCGGAGTCACCTAGTGCAG
Second: GCGGGAAAGGAAGGCTGATCGCTTAATTAGCCGCTTCAGTCGGAGTCACCTAGTGCAG
The binding signal of the first is lower: 14700 fluorescence intensity (a.u.) for the first, 28500 fluorescence intensity (a.u.) for the second.

Going from “CGTCAATGTATGTTCTGGAGCTAACATAGCTCAATCATTGCGGAGTCACCTAGTGCAG” to “ATGGTCTGGTCCCCGTGACGAGCACCGGTGGCCTCTCCCGCGGAGTCACCTAGTGCAG”, the binding signal falls from 5030 fluorescence intensity (a.u.) to 3450 fluorescence intensity (a.u.).

Compared with “AGCGACAACCTTGGCAGCCCAAGTGTTGTTGCTCTGTGTGCGGAGTCACCTAGTGCAG”, “AAAGCTGAAACCCTCCTCACTTCCACGCCTCTCTTTCCTTCGGAGTCACCTAGTGCAG” is lower in binding signal: 27700 fluorescence intensity (a.u.) for the first, 3210 fluorescence intensity (a.u.) for the second.

Going from “AGTTAAATTTTAACTCATGGTGACGTGGACGAAACTCTGACGGAGTCACCTAGTGCAG” to “AGATCGACCAATGATACACACACAGCATATGAATCCTTTCCGGAGTCACCTAGTGCAG”, the binding signal rises from 25000 fluorescence intensity (a.u.) to 41400 fluorescence intensity (a.u.).

First: CTCCAATTTAGGTCGATTCCATTCGAACATTCCTCCTCCACGGAGTCACCTAGTGCAG
Second: TCGCCCCAAATCCTCACGCCCGGTCATGAAATTGTATCCACGGAGTCACCTAGTGCAG
The binding signal of the first is higher: 27600 fluorescence intensity (a.u.) for the first, 3230 fluorescence intensity (a.u.) for the second.

Compared with “GTTGGAGATGCTCTGAGAAACGCATATGTGGATGGTCTTACGGAGTCACCTAGTGCAG”, “TAAGCTGCTGCCGACGTGCAGCTCATGGGCGATACCCTTGCGGAGTCACCTAGTGCAG” is lower in binding signal: 48100 fluorescence intensity (a.u.) for the first, 3780 fluorescence intensity (a.u.) for the second.

Going from “TGATGTTGTTGTCCACCTAGGACGAGGACGTGGCATCGTGCGGAGTCACCTAGTGCAG” to “ATATGACTATAAGAAATAGATGAAGAGAGTACGTCATTCTCGGAGTCACCTAGTGCAG”, the binding signal falls from 10400 fluorescence intensity (a.u.) to 5000 fluorescence intensity (a.u.).

Compared with “ACTTCTATAGAGGAGCACACGCATGACCCCACAACATCTTCGGAGTCACCTAGTGCAG”, “GCTGTGCAGTACCAAATCGTGACCGTTGATCAGGTCTCATCGGAGTCACCTAGTGCAG” is lower in binding signal: 4380 fluorescence intensity (a.u.) for the first, 3380 fluorescence intensity (a.u.) for the second.

Going from “GCAAGATGATACGGGAGGAATCGGGAGCAGAAGCCGTGGGCGGAGTCACCTAGTGCAG” to “TCTGACGGGCGATGACGACGACGACGGTGCAAAAGCCTGACGGAGTCACCTAGTGCAG”, the binding signal rises from 3250 fluorescence intensity (a.u.) to 3310 fluorescence intensity (a.u.).

Going from “TCGACCTTCCTTTCCTGTCGCCATCTTCACCGTCTTGCCACGGAGTCACCTAGTGCAG” to “CCATTGACTGGATTGTAGTATAACAAGATGGATGATGCATCGGAGTCACCTAGTGCAG”, the binding signal falls from 3370 fluorescence intensity (a.u.) to 3180 fluorescence intensity (a.u.).

First: AGGCTCGCTTGGTGGCACGTGGCTTCGTGCAGCAGGAGGGCGGAGTCACCTAGTGCAG
Second: GATGCTTGCGTGAGCCAGGAGCAGAGCCGGCTCTTCCTCTCGGAGTCACCTAGTGCAG
The binding signal of the first is higher: 3220 fluorescence intensity (a.u.) for the first, 3190 fluorescence intensity (a.u.) for the second.

Going from “TCCAACCGCTCGATCACCGCCGGTCTGACCGGCATACACACGGAGTCACCTAGTGCAG” to “CACACATTCGCACCGCCGACGCCGAACAGAACAACAACAACGGAGTCACCTAGTGCAG”, the binding signal rises from 3230 fluorescence intensity (a.u.) to 64700 fluorescence intensity (a.u.).

Compared with “AGTTCGGCTGATCTGATCTAAATCACGTGGCAATAGGCCGCGGAGTCACCTAGTGCAG”, “CCCTCTTCTTCTTCCTAGTCACCTTCACTTGATCAGTTAGCGGAGTCACCTAGTGCAG” is higher in binding signal: 5060 fluorescence intensity (a.u.) for the first, 7140 fluorescence intensity (a.u.) for the second.

First: TATATATATATATATATATATATATTTCATATGAAACACACGGAGTCACCTAGTGCAG
Second: GGAAGAGCCCAATTAACCGTACTATTGTTGCGTCATGGGCCGGAGTCACCTAGTGCAG
The binding signal of the first is lower: 3500 fluorescence intensity (a.u.) for the first, 4600 fluorescence intensity (a.u.) for the second.

Going from “CTTCACTAAGGTCATCGTCGTGCCTTCCTCGTCCTCCTCCCGGAGTCACCTAGTGCAG” to “ATTGGGAACAATATATTCTGTCTAGATCGTGATGGTAAGACGGAGTCACCTAGTGCAG”, the binding signal falls from 43800 fluorescence intensity (a.u.) to 3200 fluorescence intensity (a.u.).

Going from “TCACCGGCGTACCTTAGCTTAGTCCTAGTAATTAAATGTACGGAGTCACCTAGTGCAG” to “CATATAATTGATAGCAGCATGACAGATTGCCAGTTAGCCGCGGAGTCACCTAGTGCAG”, the binding signal falls from 5000 fluorescence intensity (a.u.) to 3290 fluorescence intensity (a.u.).
